# Library screening results

The chains behind the UniProt entries cited, without tags or fusion partners.
UniProt E9BF75, entry or part of it: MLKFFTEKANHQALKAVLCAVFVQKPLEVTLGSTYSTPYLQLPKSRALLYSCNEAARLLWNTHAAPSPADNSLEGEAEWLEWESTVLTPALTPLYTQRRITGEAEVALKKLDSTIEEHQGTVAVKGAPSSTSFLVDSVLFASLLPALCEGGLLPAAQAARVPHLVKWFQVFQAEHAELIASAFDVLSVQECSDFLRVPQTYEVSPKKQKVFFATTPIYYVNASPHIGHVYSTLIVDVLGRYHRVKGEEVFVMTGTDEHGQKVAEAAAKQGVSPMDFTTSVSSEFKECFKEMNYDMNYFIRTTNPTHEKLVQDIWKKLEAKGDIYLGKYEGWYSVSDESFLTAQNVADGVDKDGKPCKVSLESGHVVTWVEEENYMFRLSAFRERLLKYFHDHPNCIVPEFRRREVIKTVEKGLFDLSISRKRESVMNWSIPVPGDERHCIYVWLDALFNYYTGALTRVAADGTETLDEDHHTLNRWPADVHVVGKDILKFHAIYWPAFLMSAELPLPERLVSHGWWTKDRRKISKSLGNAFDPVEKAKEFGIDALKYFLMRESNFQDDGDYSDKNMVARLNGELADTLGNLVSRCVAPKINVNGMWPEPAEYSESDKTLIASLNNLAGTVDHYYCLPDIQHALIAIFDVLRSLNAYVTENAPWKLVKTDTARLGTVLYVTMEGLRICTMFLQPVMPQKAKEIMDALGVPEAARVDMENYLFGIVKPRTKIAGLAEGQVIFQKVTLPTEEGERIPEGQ

From ChEMBL document CHEMBL3988442, “University of Dundee, Small-Polar-MMV Screening Library” (2021).

Mtb heat-shock: 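Assay on Mycobacterium tuberculosis, filed only as a heat shock assay from Cornell; the read-out is not stated. The concentration is filed as 10 mM, unlikely as a test dose, so the dose is not known. Direction is inferred from retests: higher values go with stronger inhibition. About 69,000 compounds were tested under these conditions; 1.4% (about 930) showed 50% or more at least once.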
LdMetRS: 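Methionyl-tRNA synthetase (putative), Leishmania donovani (UniProt E9BF75). Primary screen of methionyl-tRNA synthetase; the read-out is not stated. The test concentration is not given. The values are filed as inhibition. Of about 68,000 compounds tested this way, about 24 (0.035%) reached 50% or more in at least one test.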
Mtb growth Cornell: 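Whole-cell assay for inhibitors of Mycobacterium tuberculosis growth, labelled Cornell in the record; the read-out is not stated. The concentration is filed as 10 mM, unlikely as a test dose, so the dose is not known. The record gives no direction; compounds strong in two other growth screens of this library score well above the rest, so higher reads as stronger inhibition. Size under these conditions: about 53,000 compounds, about 900 of them at 50% or above in at least one test.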

Results are percentages, as filed.
The record does not define 0% and 100%; most values in the screen are far below 50% and negative numbers occur (in some assays of this library far below -100).
This is an unselected part of the compounds tested.
A dash means the value is not listed here; it may have been measured.

Compound | Mtb heat-shock | LdMetRS | Mtb growth Cornell
O=C(CN1CCC(c2nnc(C(F)(F)F)o2)CC1)NCc1ccccc1 | -2.616 | 5.367 | 4.616
CNC(=O)[C@@H]1COC[C@H]2CN(C(=O)c3cccc(OC)c3)C[C@H]21 | - | 1.038 | -
Cc1ncsc1CN1C[C@@H]2COC[C@]2(C(=O)NCc2ccccn2)C1 | - | 20.33 | -
CC(CNC(=O)CCCn1cncn1)N1CCc2ccccc2C1 (stereo not shown) | -16.52 | -1.412 | -32.17
COCc1nn(CC2CC2)c2c1CN(Cc1ccco1)CC2.O=C(O)C(F)(F)F | -7.409 | - | -
[H][C@@]12OCCC[C@]1([H])N(S(C)(=O)=O)C[C@@H]2NC(=O)c1ccno1 | 8.893 | - | -4.814
CCn1ccnc1SCCn1cnc2ccsc2c1=O | 3.382 | 18.16 | -11.97
COCC(=O)N1CC[C@@H]2O[C@H](COCc3csc(C)n3)CC[C@@H]21 | - | 19.37 | -
CCS(=O)(=O)N1CCc2ccc(=O)n(CC3CC3)c2CC1 | 33.51 | 7.801 | -16.39
Cc1ccnc(C(=O)N2C[C@@H]3CN(S(C)(=O)=O)CCO[C@@H]3C2)c1 | - | 2.422 | -
O=C(O)C(F)(F)F.O=C1COC2(CCN(Cc3ccco3)CC2)CN1CCn1cccn1 | 2.086 | - | 7.697
CCN(CC)Cc1cc(C(=O)N2CCCC(O)(CO)C2)c(C)o1 (stereo not shown) | -0.3251 | 9.749 | -12.03
CN(C)CCN1CCC2(CCN(C(=O)c3cccnc3)CC2)C1=O | 7.639 | 6.09 | 11.02
COc1ccc2c(c1)c(C(=O)Nc1nnn[nH]1)cn2C | 6.122 | 12.94 | 31.31
CN(C)CCCNC(=O)c1nc(Cc2c(Cl)cccc2Cl)no1 | -26.1 | 9.651 | -14.91
FC(F)c1nnc2ccc(N3CCC4(CCOC4)C3)nn12 (stereo not shown) | -23.86 | 10.99 | 23.66
COc1ccccc1CNC(=O)N1CCCC(CO)C1 (stereo not shown) | -7.065 | 11.56 | -3.677
Cn1cc(C2CC3(CCN(C(=O)c4cccs4)CC3)NC2=O)cn1 (stereo not shown) | 9.104 | 15.6 | 16.06
CN(C)C(=O)N[C@@H]1CN(C2CCOCC2)[C@@H]2CCCO[C@@H]21 | - | 11.42 | -
Cc1nc(N2CCCC2)nc2c1CCN(Cc1nccn1C)CC2 | - | 16.42 | -
COCCCN(C)S(=O)(=O)c1ccc(C(F)(F)F)cc1C#N | -14.01 | 10.14 | 17.03
CC(C)n1nc2c(cc1=O)CN(CC1CCCCO1)CC2 (stereo not shown) | 9.828 | 19.22 | -
CC(C)N(C)Cc1ncn2c1CN(CC(=O)N(C)C)CCC2 | -34.48 | -2.256 | -2.673
COc1nn(C)cc1C(=O)N1CCC(c2ccccc2)C1 (stereo not shown) | 5.576 | 12.58 | -
CNc1cncc(C2CCCN2C(=O)c2ccc3oc(C)cc3c2)n1 (stereo not shown) | -3.608 | 14.34 | -
Cc1oncc1C(=O)NCc1ccnc(OCC(F)(F)F)c1 | -10.04 | 1.093 | -
Cc1occc(=O)c1OCC(=O)N1CCN(c2ccccc2)CC1 | -16.96 | 13.99 | 32.32
O=C(Cn1ccc(=O)c2ccccc21)Nc1cnccc1O | -13.51 | -0.838 | -31.17
O=C(Cc1ccccn1)N1CCC2(CC1)CN(c1ccccn1)CCO2 | -8.811 | 6.266 | -70.24
Cc1nc(CN2Cc3nccn3CC(CN3CCOCC3)C2)cs1 (stereo not shown) | - | 9.023 | -
O=C(CN1CCc2cncnc2C1)NC1CCCCNC1=O (stereo not shown) | -1.39 | 8.871 | 15.88
COc1cc(NC(=O)N(C)Cc2ccc(Br)o2)ncn1 | 2.162 | 7.013 | -19.16
Cc1ccc(CN(C)C(=O)CN2CCCC2c2cnn(C)c2)o1 (stereo not shown) | 15.31 | -1.63 | -49.7
Cn1ccnc1S(=O)(=O)C(C(=O)N1CCCCC1)c1ccccc1 (stereo not shown) | 13.53 | 4.805 | -22.79
O=C(O)C(F)(F)F.O=C(O)C(F)(F)F.[H][C@@]12COC[C@@H](CC(=O)N3CCOCC3)[C@]1([H])CN(Cc1cccnc1)C2 | -22.15 | - | 4.062
CC(C)n1nc(O)c2c1NC(=O)CSC2c1cnn(C)c1 (stereo not shown) | -14.43 | 11.08 | 8.335
O=C(N1CCCC1)N1CCC2(CCN(Cc3ccccn3)C2=O)C1.O=C(O)C(F)(F)F (stereo not shown) | -6.613 | - | -
CC(C)(C)C(O)CN1CCN(Cc2cccc(C#N)c2)CC1 (stereo not shown) | -9.27 | 3.693 | -
CNC(=O)Cc1ccccc1NC(=O)N[C@H]1c2ccccc2C[C@H]1O | -24.65 | 13.94 | -
Cc1cc(CNCc2c(C(C)C)nn(C)c2N2CCOCC2)no1 | -7.557 | 7.396 | -18.39
[H][C@@]12CN(C(=O)NC3CCCCC3)C[C@]1([H])OCCN2C(=O)c1ccco1 | -9.591 | - | -8.012
O=c1cc(CN2CCCC(CCc3c(F)cccc3F)C2)[nH]c(=O)[nH]1 (stereo not shown) | 0.2062 | 13.41 | -
COCCN1CCC(c2nc3ccc(NC(C)C)cn3n2)CC1 | - | 19.31 | -
CNC(C(=O)N1CCC(c2nccn2C(C)C)CC1)c1ccccc1 (stereo not shown) | -25.42 | 15.38 | 16.5
Cl.Cl.c1cnc(NCc2cncc3c2CCN(CC2CC2)C3)nc1 | -5.572 | - | -2.595
CC(=O)N1CC[C@H]2OCC[C@@H](C(=O)NCc3ccco3)[C@H]2C1 | - | 5.333 | -
COC1CCN(C(=O)Cc2csc(-c3ccccc3)n2)CC1 | 4.063 | 12.02 | -
CCn1cnnc1CNC(=O)N1CCN(CCc2ccccc2)CC1 | 0.7251 | 20.44 | -

Some entries from above, unchanged:

Compound,Mtb heat-shock,LdMetRS,Mtb growth Cornell
CC(C)(C)C(O)CN1CCN(Cc2cccc(C#N)c2)CC1 (stereo not shown),-9.27,3.693,-
CN(C)CCCNC(=O)c1nc(Cc2c(Cl)cccc2Cl)no1,-26.1,9.651,-14.91
FC(F)c1nnc2ccc(N3CCC4(CCOC4)C3)nn12 (stereo not shown),-23.86,10.99,23.66
Cl.Cl.c1cnc(NCc2cncc3c2CCN(CC2CC2)C3)nc1,-5.572,-,-2.595
COC1CCN(C(=O)Cc2csc(-c3ccccc3)n2)CC1,4.063,12.02,-
CC(=O)N1CC[C@H]2OCC[C@@H](C(=O)NCc3ccco3)[C@H]2C1,-,5.333,-